PubChem BioAssay AID1259405, NCATS, 2018
The whole screen tested about 50,000 reagents; below is an unselected part. Over the whole deposit, about 4,000 (8%) are marked active. 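Mouse siRNA library applied to hamster cells; one well for each siRNA.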 Reagents against one gene are numbered here. Reagent sequences are not shown.

- Purpose: 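Silenced genes that increase secreted GFP made by CHO cells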 (primary screen)
- Cells: Chinese hamster CHO-K1 ovary cells with stable secreted eGFP expression
- Knock-down reagent: single siRNA against mouse genes, 0.8 pmol siRNA per well (2 µl of 400 nM stock)
- Time to read-out: 3 days
- Measurement: 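Per-well intracellular GFP measured by laser scanning cytometry, plus viability from ATP luminescence, each relative to plate median of non-targeting control wells, in %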
- Reading the numbers: GFP, % of control: higher = more GFP per well, higher productivity; viability (ATP), % of control: higher = more viable cells (more ATP)
- Active means: 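Called active when intracellular GFP, relative to negative control, is at or above 120%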

| Target gene | siRNA no. | GFP, % of control | viability (ATP), % of control | Call |
| --- | --- | --- | --- | --- |
| Exosc9 | 1 | 68.8 | 61 | inactive |
| Exosc9 | 2 | 88.2 | 84.5 | inactive |
| Exosc9 | 3 | 34.6 | 45.4 | inactive |
| Cd200r4 | 1 | 58.5 | 79.3 | inactive |
| Cd200r4 | 2 | 55.9 | 88.8 | inactive |
| Cd200r4 | 3 | 56.5 | 65.7 | inactive |
| Nprl2 | 1 | 135 | 109 | active |
| Nprl2 | 2 | 84.1 | 95.1 | inactive |
| Nprl2 | 3 | 72.2 | 94.2 | inactive |
| Or2a51 | 1 | 58.3 | 75.9 | inactive |
| Or2a51 | 2 | 97.2 | 72.2 | inactive |
| Or2a51 | 3 | 144 | 153 | active |
| Zfp120 | 1 | 48.1 | 60.3 | inactive |
| Zfp120 | 2 | 77.7 | 76.2 | inactive |
| Zfp120 | 3 | 42.1 | 70 | inactive |
| Rbmxl2 | 1 | 52.4 | 69.7 | inactive |
| Rbmxl2 | 2 | 84.8 | 92.9 | inactive |
| Rbmxl2 | 3 | 77.2 | 84.3 | inactive |
| Rrp7a | 1 | 94.3 | 77.5 | inactive |
| Rrp7a | 2 | 150 | 67.5 | active |
| Rrp7a | 3 | 135 | 70.1 | active |
| Gask1a | 1 | 82.1 | 93.4 | inactive |
| Gask1a | 2 | 57.6 | 72.7 | inactive |
| Gask1a | 3 | 79.4 | 99.8 | inactive |
| Dmrtc1a | 1 | 35 | 38.9 | inactive |
| Dmrtc1a | 2 | 66.5 | 44.5 | inactive |
| Dmrtc1a | 3 | 102 | 113 | inactive |
| Lrpap1 | 1 | 57.5 | 71.5 | inactive |
| Lrpap1 | 2 | 84.3 | 61.2 | inactive |
| Lrpap1 | 3 | 145 | 50.2 | active |
| Ndufa1 | 1 | 64.5 | 80.2 | inactive |
| Ndufa1 | 2 | 58.6 | 63.6 | inactive |
| Ndufa1 | 3 | 76 | 63.4 | inactive |
| Bace2 | 1 | 68 | 71 | inactive |
| Bace2 | 2 | 89.1 | 87 | inactive |
| Bace2 | 3 | 67.2 | 77.9 | inactive |
| Psg17 | 1 | 40.4 | 56.6 | inactive |
| Psg17 | 2 | 65.9 | 71.5 | inactive |
| Psg17 | 3 | 78.4 | 106 | inactive |
| Msn | 1 | 67.4 | 65.3 | inactive |
| Msn | 2 | 99.3 | 75.4 | inactive |
| Msn | 3 | 96 | 77.2 | inactive |
| Icmt | 1 | 106 | 114 | inactive |
| Icmt | 2 | 131 | 98.5 | active |
| Icmt | 3 | 109 | 108 | inactive |
| Slc37a4 | 1 | 62.8 | 58.8 | inactive |
| Slc37a4 | 2 | 63.1 | 67.4 | inactive |
| Slc37a4 | 3 | 37.2 | 37.4 | inactive |
| Prxl2b | 1 | 147 | 105 | active |
| Prxl2b | 2 | 59.1 | 31.6 | inactive |
| Prxl2b | 3 | 61.9 | 74.1 | inactive |
| Apba3 | 1 | 90.5 | 96.8 | inactive |
| Apba3 | 2 | 63.6 | 76.4 | inactive |
| Itgb3bp | 1 | 53.2 | 59.9 | inactive |
| Itgb3bp | 2 | 84.5 | 74.7 | inactive |
| Itgb3bp | 3 | 67.5 | 72.9 | inactive |
| Gcg | 1 | 46.5 | 41.2 | inactive |
| Gcg | 2 | 93.2 | 71.6 | inactive |
| Gcg | 3 | 143 | 49.1 | active |
| Or4x6 | 1 | 77.6 | 59.1 | inactive |
| Or4x6 | 2 | 44.2 | 53 | inactive |
| Or4x6 | 3 | 92.9 | 91.6 | inactive |
| Cep112 | 1 | 77 | 90.2 | inactive |
| Cep112 | 2 | 106 | 91 | inactive |
| Cep112 | 3 | 53.1 | 51.1 | inactive |
| Sfr1 | 1 | 135 | 102 | active |
| Sfr1 | 2 | 118 | 89.3 | inactive |
| Sfr1 | 3 | 111 | 153 | inactive |
| Lcn4 | 1 | 39.7 | 44.4 | inactive |
| Lcn4 | 2 | 70.4 | 65.7 | inactive |
| Lcn4 | 3 | 53 | 52.7 | inactive |
| Ms4a8a | 1 | 100 | 109 | inactive |
| Ms4a8a | 2 | 80.2 | 66.1 | inactive |
| Ms4a8a | 3 | 74.9 | 75.9 | inactive |
| Lta4h | 1 | 106 | 96.9 | inactive |
| Lta4h | 2 | 51 | 82.5 | inactive |
| Lta4h | 3 | 66.4 | 56.7 | inactive |
| Pms2 | 1 | 62.9 | 101 | inactive |
| Pms2 | 2 | 60.7 | 73.2 | inactive |
| Relt | 1 | 68.9 | 62.7 | inactive |
| Relt | 2 | 63.1 | 71.9 | inactive |
| Relt | 3 | 75.8 | 61.4 | inactive |
| Or52ab4 | 1 | 59.5 | 63.1 | inactive |
| Or52ab4 | 2 | 119 | 80.8 | inactive |
| Or52ab4 | 3 | 42.3 | 67.1 | inactive |
| Mpp3 | 1 | 66.6 | 79.1 | inactive |
| Enpp1 | 1 | 77.3 | 70.2 | inactive |
| Enpp1 | 2 | 162 | 90.7 | active |
| BC049715 | 1 | 60.9 | 65.6 | inactive |
| BC049715 | 2 | 64.1 | 73.9 | inactive |
| BC049715 | 3 | 137 | 136 | active |
| Rnase2a | 1 | 59.8 | 43.9 | inactive |
| Rnase2a | 2 | 59.9 | 77.3 | inactive |
| Rnase2a | 3 | 100 | 104 | inactive |
| Fam171b | 1 | 108 | 90.8 | inactive |
| Fam171b | 2 | 87.9 | 84.5 | inactive |
| Fam171b | 3 | 94.8 | 90 | inactive |
| Gne | 1 | 59.6 | 53.2 | inactive |
| Gne | 2 | 117 | 90 | inactive |
| Gne | 3 | 60.1 | 43.9 | inactive |
| Klrg2 | 1 | 74.3 | 45.6 | inactive |
| Klrg2 | 2 | 85.1 | 93.1 | inactive |
| Klrg2 | 3 | 102 | 75.7 | inactive |
| Vmn1r216 | 1 | 79.8 | 66.3 | inactive |
| Vmn1r216 | 2 | 59.4 | 50.8 | inactive |
| Vmn1r216 | 3 | 75.1 | 75 | inactive |
| Psma4 | 1 | 51.6 | 44.8 | inactive |
| Psma4 | 2 | 6.29 | 3.27 | inactive |
| Psma4 | 3 | 97.5 | 48 | inactive |

Records above whose target name begins with G or g:
| Target gene | siRNA no. | GFP, % of control | viability (ATP), % of control | Call |
| --- | --- | --- | --- | --- |
| Gask1a | 1 | 82.1 | 93.4 | inactive |
| Gask1a | 2 | 57.6 | 72.7 | inactive |
| Gask1a | 3 | 79.4 | 99.8 | inactive |
| Gcg | 1 | 46.5 | 41.2 | inactive |
| Gcg | 2 | 93.2 | 71.6 | inactive |
| Gcg | 3 | 143 | 49.1 | active |
| Gne | 1 | 59.6 | 53.2 | inactive |
| Gne | 2 | 117 | 90 | inactive |
| Gne | 3 | 60.1 | 43.9 | inactive |
